These are yes or no findings as the source states them, for the method shown. Binding seen in cells or lysates may run through a third protein. A result given as binding can be weak or reduced; the word gives no strength.
Molecular target: T1, REG3B (rat, AR42J cells) (rat (endogenous in AR42J)) (UniProt P25031)
T1 sequence: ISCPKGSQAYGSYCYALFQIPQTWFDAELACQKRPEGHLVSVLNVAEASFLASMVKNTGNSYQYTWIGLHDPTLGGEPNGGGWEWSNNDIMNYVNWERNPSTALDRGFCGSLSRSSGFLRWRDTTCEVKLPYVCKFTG
Experiment: co-IP; total lysates (2 mg, pre-cleared) incubated overnight at 4 °C with anti-REG3B antibody (20 μg/mL), Protein-G agarose beads; eluates blotted for EXTL3; mouse primary acinar cells and AR42J

Exostosin-like glycosyltransferase 3 (EXTL3), rat (AR42J cells) (receptor)
binding: binds
